These are yes or no findings as the source states them, for the method shown. A result given as binding can be weak or reduced; the word gives no strength.

This assay has as its target MBP-CfaE-N Tyr183Ala mutant (enterotoxigenic Escherichia coli). Nature of the assay: ELISA on plate-bound MBP-CfaE-N Tyr183Ala mutant, OD405. (ELISA stands for enzyme-linked immunosorbent assay.)

B1: anti-CfaE HuMab 68-48 (antibody, human IgG1, V domains shown)
VH: QVQLQQWGAGLLKPSETLSLTCAVYGGSFSGYSWSWIRQSPGKGLEWIGEIYHSGSTNYNPSLKSRVTISGDTSKNQFSLKLSSVTAADTAVYYCARENLQGYYYYGMDVWGQGTTVTVSS
VL: AIQLTQSPSSLSASVGDRVTITCRASQGISSSLAWYQQKPGKAPKLLIYDASSLESGVPSRFSGSGSGTDFTLTISSLQPEDFATYYCQQFNSYPRTFGQGTKVEIK
On to B1, for which the binding result is on record as “binds”.

The record behind these values is patent US20210388068A1.
